Laboratory results from PubChem BioAssay AID256 (DTP/NCI, 2004).
The list is a part of this screen's results and no random one: it is rich in T/C values a quarter to a half above the control, in often repeated tests (any T/C) and in doses without a T/C. Other doses and runs of a compound stand elsewhere. T/C gives the treated animals as a percentage of the vehicle group. Some entries give survivors of the animals treated and no T/C: the source holds a T/C of zero for them, seemingly a mark for toxic or unscored doses. Some survivor counts are full or nearly so, which does not show that the dose was tolerated: the source hardly ever lists a survival T/C far under the control, and the zero likely stands for such cases as well. Counts of survivors are from the toxicity check (mostly the fifth day) where no day follows; animals may have died later. Schedules are NCI's codes, taken here to give the interval after Q, in days (D) or hours (H), and the number of doses after X. Some entries were tested several times; the results are listed from low to high. Marks such as (2×) give the number of equal values in this list. Where survival is the endpoint, this PubChem deposit counts one and a half times the control or more as active, and values a quarter to a half above the control carry no call in these data; other NCI protocols may use other cut-offs. Some T/C values carry the count of animals alive at the toxicity check (mostly the fifth day); without a count, all were alive then.

System: CD2F1 mice, L1210 leukemia ip, survival T/C
Test: NCI In Vivo Anticancer Drug Screen. Data for tumor model L1210 Leukemia (intraperitoneal) in CD2F1 (CDF1) mice
Settings: T/C endpoint: median survival time, higher T/C = longer survival
Procedure, shortened: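 Activity against a transplanted murine tumor was judged by comparing the compound group with a vehicle group. The outcome in the treated animals was divided by that in the controls.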

[1] = dose: 160.0 mg/kg/injection, schedule: Q01DX005 (ip), vehicle: alkali diluted with saline

Compound: S=c1nc[nH]c2nc[nH]c12
- T/C (dose: 40.0 mg/kg/injection, schedule: Q01DX005 (ip), vehicle: alkali diluted with water, evaluated on day 35): 137 % of control
- T/C (dose: 40.0 mg/kg/injection, schedule: Q01DX005 (ip), vehicle: saline): 101, 146, 151, 160, 164, 166 % of control
- T/C (dose: 40.0 mg/kg/injection, schedule: Q01DX009 (ip), vehicle: alkali diluted with saline, evaluated on day 30): 149 % of control
- T/C (dose: 40.0 mg/kg/injection, schedule: Q01DX009 (ip), vehicle: alkali diluted with saline, evaluated on day 45): 134 % of control
- T/C (dose: 40.0 mg/kg/injection, schedule: Q01DX009 (ip), vehicle: water, evaluated on day 5): 147 % of control
- T/C (dose: 40.0 mg/kg/injection, schedule: Q01DX009 (ip), vehicle: water, evaluated on day 33): 147 % of control
- T/C (dose: 43.2 mg/kg/injection, schedule: Q01DX009 (ip), vehicle: alkali diluted with saline): 129 % of control
- T/C (dose: 50.0 mg/kg/injection, schedule: Q01DX005 (ip), vehicle: alkali diluted with water): 141 % of control
- T/C (dose: 50.0 mg/kg/injection, schedule: Q01DX009 (ip), vehicle: alkali diluted with saline, evaluated on day 5): 141 % of control
- T/C (dose: 50.0 mg/kg/injection, schedule: Q01DX009 (ip), vehicle: alkali diluted with saline, evaluated on day 30): 154 % of control
- T/C (dose: 50.0 mg/kg/injection, schedule: Q01DX009 (ip), vehicle: alkali diluted with saline, evaluated on day 45): 135, 138, 147, 153 % of control
- T/C (dose: 60.0 mg/kg/injection, schedule: Q01DX001 (ip), vehicle: alkali diluted with water): 125 % of control
- T/C (dose: 60.0 mg/kg/injection, schedule: Q01DX009 (ip), vehicle: Klucel (hydroxypropylcellulose) (HPC)): 136 % of control
- T/C (dose: 60.0 mg/kg/injection, schedule: Q01DX009 (ip), vehicle: alkali diluted with saline): 146 % of control
- T/C (dose: 80.0 mg/kg/injection, schedule: Q01DX005 (ip), vehicle: alkali diluted with saline): 144, 146, 151, 160, 176, 178, 217 % of control [4 of 6 alive]
- T/C (dose: 80.0 mg/kg/injection, schedule: Q01DX005 (ip), vehicle: alkali diluted with water, evaluated on day 20): 136, 144, 147, 151 (2×), 164, 182 % of control
- T/C (dose: 80.0 mg/kg/injection, schedule: Q01DX005 (ip), vehicle: alkali diluted with water, evaluated on day 30): 120, 129, 137 (2×), 144, 146 (2×), 148 (2×), 149, 151, 152, 153, 154 (3×), 155 (2×), 156 (2×), 157 (2×), 159 (2×), 163, 164, 166 [5 of 6 alive], 168, 169, 174, 176, 178, 185, 215 % of control
- T/C (dose: 80.0 mg/kg/injection, schedule: Q01DX005 (ip), vehicle: alkali diluted with water, evaluated on day 35): 204 % of control
- T/C (dose: 80.0 mg/kg/injection, schedule: Q01DX005 (ip), vehicle: saline): 106, 151, 170, 177, 212, 213 % of control
- T/C (dose: 100.0 mg/kg/injection, schedule: Q01DX009 (ip), vehicle: alkali diluted with water): 134 % of control
- T/C (dose: 120.0 mg/kg/injection, schedule: Q04DX003 (ip), vehicle: other): 128 % of control
- survivor count (dose: 125.0 mg/kg/injection, schedule: Q01DX001 (ip), vehicle: alkali diluted with saline): 3 of 10
- T/C (dose: 138.8 mg/kg/injection, schedule: Q01DX009 (ip), vehicle: alkali diluted with saline): 141 % of control
- survivor count (dose: 150.0 mg/kg/injection, schedule: Q01DX001 (ip), vehicle: alkali diluted with saline): 5 of 10
- T/C [1]: 93, 98, 134, 149, 151, 170 % of control
- survivor count [1]: 5 of 6
- T/C (dose: 160.0 mg/kg/injection, schedule: Q01DX005 (ip), vehicle: alkali diluted with water, evaluated on day 20): 130, 134, 141, 150, 163, 170 % of control
- T/C (dose: 160.0 mg/kg/injection, schedule: Q01DX005 (ip), vehicle: alkali diluted with water, evaluated on day 30): 95, 98, 100 [5 of 6 alive], 103 (2×), 104, 106, 111, 112, 114, 116, 117 (2×), 121, 123, 123 [4 of 6 alive], 134, 142, 144, 146, 147, 148, 152, 153, 155, 157 [5 of 6 alive], 158 (2×), 164, 168, 170, 193 % of control
- T/C (dose: 160.0 mg/kg/injection, schedule: Q01DX005 (ip), vehicle: alkali diluted with water, evaluated on day 35): 164 % of control
- survivor count (dose: 160.0 mg/kg/injection, schedule: Q01DX005 (ip), vehicle: alkali diluted with water): 5 of 6 and 6 of 6 (2×)
- T/C (dose: 160.0 mg/kg/injection, schedule: Q01DX005 (ip), vehicle: saline): 111, 113, 170, 175, 179, 185 % of control
- T/C (dose: 160.0 mg/kg/injection, schedule: Q01DX005 (ip), vehicle: water): 141 % of control
- T/C (dose: 167.0 mg/kg/injection, schedule: Q01DX001 (ip), vehicle: alkali diluted with water): 145 % of control [4 of 5 alive]
- T/C (dose: 300.0 mg/kg/injection, schedule: Q04DX003 (ip), vehicle: Klucel (hydroxypropylcellulose) (HPC)): 146 % of control
- survivor count (dose: 400.0 mg/kg/injection, schedule: Q01DX009 (ip), vehicle: alkali diluted with water): 1 of 6
